Reference: article PMC6393609
These are yes or no findings as the source states them, for the method shown. Binding seen in cells or lysates may run through a third protein. Some binding calls cover weakened binding; strength is not graded here.

The chains behind the UniProt entries cited, without tags or fusion partners. Where a name states a change or a piece, a line headed by the entry shows the natural chain unless it says otherwise. Residues count along the entry.
UniProt Q96GG9: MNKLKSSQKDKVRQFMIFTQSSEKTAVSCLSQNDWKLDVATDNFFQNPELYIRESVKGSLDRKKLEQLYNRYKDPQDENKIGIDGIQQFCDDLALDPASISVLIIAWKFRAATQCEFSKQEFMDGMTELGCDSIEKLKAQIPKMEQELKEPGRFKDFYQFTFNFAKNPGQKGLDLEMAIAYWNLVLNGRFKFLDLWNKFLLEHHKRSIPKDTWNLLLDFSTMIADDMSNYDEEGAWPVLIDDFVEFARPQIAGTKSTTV
HA–DCNL1 (PONY): residues 59-259 of Q96GG9
UniProt Q93034: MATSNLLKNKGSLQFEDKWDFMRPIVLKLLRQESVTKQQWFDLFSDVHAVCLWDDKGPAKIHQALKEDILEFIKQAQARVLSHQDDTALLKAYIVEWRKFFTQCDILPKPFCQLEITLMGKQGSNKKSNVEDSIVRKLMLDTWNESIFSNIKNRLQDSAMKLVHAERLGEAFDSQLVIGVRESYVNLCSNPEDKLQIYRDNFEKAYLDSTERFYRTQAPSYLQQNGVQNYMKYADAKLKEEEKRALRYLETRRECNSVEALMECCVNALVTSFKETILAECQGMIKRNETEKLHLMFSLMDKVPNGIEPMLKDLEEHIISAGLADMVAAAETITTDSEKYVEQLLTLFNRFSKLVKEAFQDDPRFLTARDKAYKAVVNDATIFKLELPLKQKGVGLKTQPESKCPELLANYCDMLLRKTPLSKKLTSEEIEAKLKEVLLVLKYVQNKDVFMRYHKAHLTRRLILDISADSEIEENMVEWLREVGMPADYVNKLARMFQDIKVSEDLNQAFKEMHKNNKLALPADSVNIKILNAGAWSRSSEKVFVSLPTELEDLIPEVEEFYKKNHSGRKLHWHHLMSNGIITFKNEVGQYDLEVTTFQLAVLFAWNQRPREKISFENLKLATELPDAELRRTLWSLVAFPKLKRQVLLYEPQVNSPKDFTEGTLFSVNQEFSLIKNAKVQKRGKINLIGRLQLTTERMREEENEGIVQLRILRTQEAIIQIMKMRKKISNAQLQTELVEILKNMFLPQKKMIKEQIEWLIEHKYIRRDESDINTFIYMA
UniProt Q9UNS2: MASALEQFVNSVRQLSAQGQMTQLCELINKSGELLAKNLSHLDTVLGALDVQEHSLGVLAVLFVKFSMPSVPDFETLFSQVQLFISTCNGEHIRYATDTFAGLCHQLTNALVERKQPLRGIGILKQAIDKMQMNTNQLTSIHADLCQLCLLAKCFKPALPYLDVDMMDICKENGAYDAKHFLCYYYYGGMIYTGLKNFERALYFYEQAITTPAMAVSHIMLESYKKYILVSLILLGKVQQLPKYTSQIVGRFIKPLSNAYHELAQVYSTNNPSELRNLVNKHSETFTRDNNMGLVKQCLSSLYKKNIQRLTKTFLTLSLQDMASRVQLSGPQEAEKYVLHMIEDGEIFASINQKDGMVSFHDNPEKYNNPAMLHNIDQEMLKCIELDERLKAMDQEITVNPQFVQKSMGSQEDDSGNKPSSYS
UniProt Q92905: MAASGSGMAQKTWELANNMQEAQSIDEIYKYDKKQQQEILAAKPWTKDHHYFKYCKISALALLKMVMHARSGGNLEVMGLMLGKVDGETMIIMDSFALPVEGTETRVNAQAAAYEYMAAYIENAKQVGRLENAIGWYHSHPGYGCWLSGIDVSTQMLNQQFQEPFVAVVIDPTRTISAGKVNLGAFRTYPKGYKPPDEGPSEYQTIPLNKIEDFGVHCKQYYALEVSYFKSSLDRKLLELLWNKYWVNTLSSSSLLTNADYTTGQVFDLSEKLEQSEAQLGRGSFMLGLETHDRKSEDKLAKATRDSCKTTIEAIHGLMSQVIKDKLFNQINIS
UniProt Q9H9Q2: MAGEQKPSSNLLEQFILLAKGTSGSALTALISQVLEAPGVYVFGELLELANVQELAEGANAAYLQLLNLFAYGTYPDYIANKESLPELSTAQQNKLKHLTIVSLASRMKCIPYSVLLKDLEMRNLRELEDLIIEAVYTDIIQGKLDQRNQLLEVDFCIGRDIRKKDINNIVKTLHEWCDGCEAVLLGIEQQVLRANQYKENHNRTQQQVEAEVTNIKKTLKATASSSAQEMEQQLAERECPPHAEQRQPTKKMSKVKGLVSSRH
UniProt Q99627: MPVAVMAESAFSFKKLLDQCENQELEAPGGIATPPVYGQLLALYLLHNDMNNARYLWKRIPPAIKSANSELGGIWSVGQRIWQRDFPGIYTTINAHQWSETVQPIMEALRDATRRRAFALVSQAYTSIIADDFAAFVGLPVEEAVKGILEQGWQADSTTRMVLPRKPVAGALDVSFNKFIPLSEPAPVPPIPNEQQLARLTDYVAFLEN
UniProt Q13619: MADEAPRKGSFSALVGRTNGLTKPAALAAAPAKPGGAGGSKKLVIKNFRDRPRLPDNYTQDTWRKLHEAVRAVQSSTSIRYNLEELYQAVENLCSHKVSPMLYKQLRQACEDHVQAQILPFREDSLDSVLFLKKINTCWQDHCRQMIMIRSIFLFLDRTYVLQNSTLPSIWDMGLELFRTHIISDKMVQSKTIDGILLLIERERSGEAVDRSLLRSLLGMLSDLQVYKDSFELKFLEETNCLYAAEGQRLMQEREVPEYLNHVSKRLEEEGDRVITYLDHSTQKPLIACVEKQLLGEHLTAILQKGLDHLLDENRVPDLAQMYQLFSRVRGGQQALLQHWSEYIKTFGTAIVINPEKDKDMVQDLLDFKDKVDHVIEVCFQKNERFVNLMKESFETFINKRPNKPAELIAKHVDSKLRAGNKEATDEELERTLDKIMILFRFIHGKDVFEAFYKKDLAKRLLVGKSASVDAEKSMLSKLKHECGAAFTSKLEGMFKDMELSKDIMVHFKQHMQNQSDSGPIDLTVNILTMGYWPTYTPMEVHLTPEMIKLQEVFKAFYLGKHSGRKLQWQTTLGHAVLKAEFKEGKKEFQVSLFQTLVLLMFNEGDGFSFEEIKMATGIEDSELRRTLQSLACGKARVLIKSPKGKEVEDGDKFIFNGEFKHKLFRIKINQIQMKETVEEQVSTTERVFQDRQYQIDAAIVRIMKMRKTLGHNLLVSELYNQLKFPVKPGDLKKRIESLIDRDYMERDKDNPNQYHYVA
UniProt Q13620: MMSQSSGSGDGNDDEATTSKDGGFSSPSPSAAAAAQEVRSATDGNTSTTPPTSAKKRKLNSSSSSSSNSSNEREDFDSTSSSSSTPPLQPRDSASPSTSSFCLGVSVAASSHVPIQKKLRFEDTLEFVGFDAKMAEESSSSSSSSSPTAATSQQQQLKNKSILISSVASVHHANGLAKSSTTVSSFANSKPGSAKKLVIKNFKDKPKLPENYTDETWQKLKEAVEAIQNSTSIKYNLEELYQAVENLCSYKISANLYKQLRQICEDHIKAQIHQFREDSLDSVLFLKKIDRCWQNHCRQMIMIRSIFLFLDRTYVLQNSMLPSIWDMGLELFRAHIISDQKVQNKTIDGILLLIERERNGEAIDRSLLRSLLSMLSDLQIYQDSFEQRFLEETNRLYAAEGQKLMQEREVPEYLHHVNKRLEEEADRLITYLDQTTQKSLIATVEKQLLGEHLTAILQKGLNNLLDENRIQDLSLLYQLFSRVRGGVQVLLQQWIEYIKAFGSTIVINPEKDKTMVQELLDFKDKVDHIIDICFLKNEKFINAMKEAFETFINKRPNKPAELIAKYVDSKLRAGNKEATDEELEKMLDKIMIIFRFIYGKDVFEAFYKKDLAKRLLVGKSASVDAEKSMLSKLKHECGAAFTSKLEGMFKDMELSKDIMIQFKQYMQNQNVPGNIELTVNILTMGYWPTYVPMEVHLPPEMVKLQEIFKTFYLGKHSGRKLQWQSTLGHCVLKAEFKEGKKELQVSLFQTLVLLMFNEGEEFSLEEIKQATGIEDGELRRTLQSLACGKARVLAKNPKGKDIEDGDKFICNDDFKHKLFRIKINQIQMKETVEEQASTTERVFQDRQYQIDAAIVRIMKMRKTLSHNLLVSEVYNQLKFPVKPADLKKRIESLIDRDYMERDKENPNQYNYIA

Experiments:
HA–DCNL1 (PONY) (human) = HA–DCNL1 (PONY) (human) (UniProt Q96GG9); test: co-IP; anti-HA immunoprecipitation from lysates of HEK293 cells stably expressing mock, HA-DCNL1, HA-DCNL1 (PONY) or HA-DCNL1-Ub^CT; co-precipitated endogenous proteins by immunoblot
HA–DCNL1 (human) = HA–DCNL1 (human) (UniProt Q96GG9); test: as above
[1] = target: CUL5 (human (endogenous in HEK293)) (UniProt Q93034); test: co-IP; immunoprecipitation of endogenous CUL5 complexes from HEK293 cells stably expressing GFP-control, GFP-TRIAD1 or catalytically inactive GFP-TRIAD1 (C310S); co-precipitated proteins detected by immunoblot; nonspecific IgG as negative control

Substance | binding (HA–DCNL1 (PONY) (human)) | binding (HA–DCNL1 (human)) | binding [1]
CSN3 (from UniProt Q9UNS2 1-423) | binds | binds | –
CSN5 (from UniProt Q92905 1-334) | – | – | binds
CSN7B (from UniProt Q9H9Q2 1-264) | binds | binds | –
CSN8 (from UniProt Q99627 1-209) | binds | binds | binds
CUL4A (from UniProt Q13619 1-759) | binds | binds | –
CUL4B (from UniProt Q13620 1-913) | binds | binds | –
CUL5 (from UniProt Q93034 1-780) | binds | binds | –
endogenous DCNL1 (from UniProt Q96GG9 1-259) | – | – | binds
